Test results taken from PubChem BioAssay AID1347423 (Functional Genomics Laboratory (NCATS/FGL), 2020).
Among all 52,000 sequences or so, about 210 (0.4%) were called active.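 Rule for the calls: active = gene whose silencing raises cell survival under the drug, median off-target-corrected z-score across its silencing RNAs 2 or more; inactive = the rest.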 Some of the results follow.

Test: Resistance to Poly (ADP-Ribose) Polymerase inhibitor: Gene Identification via Genome-wide siRNA Screen
Settings: mouse BRCA2 R2336H ES cells, olaparib, CellTiter-Glo viability; active compounds read high
Summary of the method: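 Mouse BRCA2 R2336H ES cells were reverse-transfected with siRNA (20 nM final), treated at 48 h with 500 nM olaparib, and read by CellTiter-Glo after 72 h. Scores: MAD-based z per siRNA, median per gene, seed off-target correction.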

Row | Sequence | z-score
1 | GGAGUGAAUACUGGUGCUGTT against Crip2 | inactive: 2.12
2 | GGUAACUGGGAUUGUAUUUTT against Cbln4 | inactive: -1.43
3 | GGGAAAGAUAGUAGAAGUCTT against Gmpr2 | inactive: 0.0609
4 | GGUGAAACUUGCACAAUAUTT against BC027246 | inactive: 0.143
5 | GAACUUGAUUGUCCUCCUGTT against Mc2r | inactive: 0.709
6 | GGAAGGAACUUUUUGAGUATT against Rnf35 | inactive: -0.081
7 | CGACUUCAUAAUUAUGCAATT against Als2 | inactive: 0.307
8 | GCUAUAAUGCUGGAGUCAATT against Leprel1 | inactive: 0.428
9 | GGACCGCUUCAACAGUAUGTT against Tcfl5 | inactive: 0.67
10 | GGAGCAGAAUGAGAAGACUTT against Mir | inactive: 0.288
11 | GCCCUUAUUAAACCAUUUGTT against Usp9x | inactive: -2.08
12 | GGGUUCUAGUCUUCGAGACTT against Jmjd1b | inactive: -0.0867
13 | GGUAUUCACCAUUAUGACUTT against Olfr186 | inactive: 0.778
14 | GGGUCUCCUCUUUCCGUAATT against B930037P14Rik | inactive: -0.691
15 | GGUGUUCAAGUACCAGUAUTT against Egln2 | inactive: -0.524
16 | GAUGCUCGAGAAUCUACUCTT against Olfr284 | inactive: -0.352
17 | GGAUUUCAUGUUUGAGAUCTT against Unc13b | inactive: 2.29
18 | GCGGCUACAGAUCCUAAUGTT against Khsrp | inactive: -0.391
19 | GCUUUGAUGUCGAUGGGCUTT against Arg1 | inactive: 0.175
20 | GGAUCUAUUCACUUCGGAUTT against Ocil | inactive: 0.451
21 | GGACACAGUUGAAAAGGUUTT against Kcnh1 | inactive: -0.215
22 | CCCUGUGACCAGGAUUACATT against AW049765 | inactive: 0.983
23 | GCAUUUUAGACUCAGAAUCTT against Car3 | inactive: 1.34

Another view of some results above.
GGAUCUAUUCACUUCGGAUTT against Ocil
  z-score: inactive: 0.451
GGACACAGUUGAAAAGGUUTT against Kcnh1
  z-score: inactive: -0.215
CCCUGUGACCAGGAUUACATT against AW049765
  z-score: inactive: 0.983
GCAUUUUAGACUCAGAAUCTT against Car3
  z-score: inactive: 1.34

Next part

Row | Sequence | z-score
24 | CCUCUGUUGGUCGUAAAGCTT against AK129302 | inactive: -0.393
25 | GGUUGAAAACUAAGAACUCTT against Pglyrp2 | inactive: -0.0636
26 | GCUGUACGUAGAUUCCAGATT against Mmp21 | inactive: -0.446
27 | CCAAGAAGCAUGCAUGUAUTT against 2810474O19Rik | inactive: -0.817
28 | GGGUAAAACCAUCAAGGAGTT against D330038I09Rik | inactive: -0.735
29 | CCUGGAUCAUAUAAUAGAGTT against Dffb | inactive: 0.34
30 | GGUGAUUUCACUGGGUAAGTT against Olfr632 | inactive: -0.74
31 | CCCUAUAAUUGCCUUAAUATT against ICRFP703B1614Q5.6 | inactive: -0.0759
32 | GCACUACCACUGUCAGCAATT against Ldb3 | inactive: -0.741
33 | GCCCUACUGUCAAAUAGGATT against Pxmp4 | inactive: 0.635
34 | GGUUUACAACCAAAGCUUUTT against C130034I18Rik | inactive: 0.382
35 | GGAAUUGAGUGGUUGUAUCTT against 4933427D14Rik | inactive: 0.153
36 | GGCUCCGUGAUGCUUCAAGTT against Selenbp2 | inactive: 0.087
37 | GGCUGAUUUUCAGCUAAACTT against A430107J06Rik | inactive: 3.07
38 | GGCCAUGAUAUCCUCUUCUTT against Vars2 | inactive: -2.77
39 | GGUUUGAUGUGGAAUCAUGTT against 1110006I15Rik | inactive: 0.205
40 | GGUGAACAUUGACCACUUCTT against Rgs5 | inactive: -0.749
41 | GGAUUUACCUUACAAAAGUTT against Fmr2 | inactive: 0.578
42 | CCUUUUGAUAGUGAUGGUCTT against Olfr735 | inactive: 0.24
43 | GCUUCGGCCUCAGUAUUCATT against Pigb | inactive: 1.84
44 | GGCUUUAGUUAGAACGGGUTT against Pttg1 | inactive: 0.487
45 | GCAUGUAGCCUGGCCUUCUTT against Zfp458 | inactive: 2.4
46 | GGCUAACCGUAUCAGUCAUTT against 5832418A03Rik | inactive: 1.79

Row | Sequence | z-score
47 | GCUUUAAACUGAGUGAUAATT against Zfp451 | inactive: 0.613
48 | GGCUGUGAAGCAAAAGCAGTT against Nola2 | inactive: -0.118
49 | CCGUAUUUAUAUUGGUUACTT against Phlda2 | inactive: 1.52
50 | CCUCGAAUGCAGACGUACGTT against Sdhb | inactive: 2
51 | GGGAGGGUACAGAAAUUUATT against Spz1 | inactive: 0.488
52 | GGUGAAGUCACUAAUCUUUTT against Prp19 | inactive: -0.966
53 | CCUAUCCUUCUCUGACAUCTT against Olfr371 | inactive: -0.704
54 | GGAGAAGUUUGGCAAGCCCTT against Hdgf | inactive: -0.848
55 | GGGUGCAAGUCGUUUCUCUTT against Ugcgl1 | inactive: 1.42
56 | GGAGAUGAAAAGAGAAAUCTT against Cct6b | inactive: -0.287
57 | GGAGGAUCAGAGAACAGAGTT against Alms1 | inactive: 0.885
58 | GCGAUUCAGAGACCUAUGGTT against Aven | inactive: -3.33
59 | CCCAACAAAAUGCAUCAAUTT against Nrg3 | inactive: -0.0265
60 | GGAGAAGCUAUGGUAUUACTT against Apc2 | inactive: -0.0862
61 | CCUUCAGGAGAAUAAUUGUTT against Prkar2b | inactive: 0.46
62 | CGCCUUGCUUUGUUACCAATT against MGI:2153084 | inactive: 1.93
63 | GGUUUUAUCCCUGUUUCCUTT against Asahl | inactive: -0.631
64 | GGCAGAUCCAAGGCUAUUATT against Olfr901 | inactive: -3.31
65 | GGAUUUAAAAGAGGCAGAATT against 1810057E01Rik | inactive: 0.758
66 | GCAGGACUAUGUCAACCUATT against Atp6v0d2 | inactive: 0.116
67 | CCAAUCUCUGGCUAUAAAUTT against AJ554213 | inactive: -0.427
